From the supplement of paper PMC3334620
In all, about 33,000 sequences were measured (“E-score (-0.5 to 0.5)”: median about -0.0014, highest 2% from about 0.25 on). Some of the results follow.

Target: T1, Cad1 (UniProt P24813)
T1 sequence: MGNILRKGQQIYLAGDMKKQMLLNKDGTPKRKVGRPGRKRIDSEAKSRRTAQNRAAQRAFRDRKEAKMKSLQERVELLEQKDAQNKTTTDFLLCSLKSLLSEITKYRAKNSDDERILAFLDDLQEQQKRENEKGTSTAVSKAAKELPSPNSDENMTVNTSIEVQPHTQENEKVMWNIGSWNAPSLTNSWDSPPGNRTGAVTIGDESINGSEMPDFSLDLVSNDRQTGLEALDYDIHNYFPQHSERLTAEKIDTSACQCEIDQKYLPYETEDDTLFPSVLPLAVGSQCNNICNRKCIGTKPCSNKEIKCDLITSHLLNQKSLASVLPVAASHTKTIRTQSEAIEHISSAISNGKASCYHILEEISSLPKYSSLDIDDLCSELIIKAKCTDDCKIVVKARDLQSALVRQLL
Experiment: PBM E-score (8-mer binding enrichment) (E-score (-0.5 to 0.5)); higher = stronger / more preferred TF binding
Settings: protein concentration: 100 nM; construct: GST-full length
In short: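 Using PURExpress in vitro transcription/translation, GST-tagged yeast transcription factors were made in full-length or DNA-binding-domain form. These were applied at about 100-200 nM to double-stranded universal all-10-mer Agilent arrays, and bound protein was detected with fluorescent anti-GST. Scans were normalised with masliner before the Universal PBM Analysis Suite assigned E-scores to ungapped eight-base words pooled with their reverse complements.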

| Sequence | PBM E-score |
| --- | --- |
| AACTTGCC | -0.118 |
| CACCAATG | -0.0866 |
| AGAAAAGA | -0.0414 |
| GAACTCGA | 0.0968 |
| TCTACGCA | 0.0654 |
| AGAGTCGG | -0.242 |
| CGTTTAAA | 0.0598 |
| GAAGACAC | -0.131 |
| CCGATGGA | -0.0825 |
| GACCTCGC | -0.175 |
| CAGTTTAC | 0.0325 |
| AGTTTAGC | 0.0227 |
| AATGCACG | -0.0908 |
| AGCCACAA | 0.0357 |
| ATAATCCC | -0.033 |
| AAGTCACG | 0.0108 |
| CAAAATCC | 0.0455 |
| ATAACCAA | 0.179 |
| GTTCTTAA | 0.109 |
| CTTTCTGC | -0.0256 |
| GCAGTCCC | -0.187 |
| GGGGTGAA | -0.22 |
| CTTAATCC | -0.0139 |
| CATCGGTA | -0.0604 |
| ATTGGTGG | 0.0593 |

| Sequence | PBM E-score |
| --- | --- |
| ACGTACAT | 0.135 |
| CCGTGAAG | -0.0979 |
| GTCATAGA | 0.024 |
| ACCTGACT | 0.156 |
| AAACGGAT | 0.243 |
| GCACTTAA | 0.115 |
| GCCGAATA | 0.0852 |
| CACGCCTC | -0.0988 |
| CCGAGGCA | -0.00745 |
| ATTGCTCG | 0.136 |
| CCGTCTAC | -0.0134 |
| CTTTCAAA | 0.244 |
| CATCATCC | 0.0445 |
| CCTAGTAA | -0.106 |
| AATGTACA | 0.0976 |
| CCATGCGC | -0.00411 |
| AATTGGAC | 0.107 |
| ACGCAGTC | -0.189 |
| GGCTACGA | -0.0271 |
| AGGACCCA | -0.22 |
| CTCGACCA | -0.186 |
| AACTATAG | -0.096 |
| CAGAATCA | 0.172 |
| GGTGCACC | -0.012 |
| TCCGCGAA | 0.202 |

An excerpt of these results, with tabs:
Sequence	PBM E-score
GGGGTGAA	-0.22
CTTAATCC	-0.0139
CATCGGTA	-0.0604
ATTGGTGG	0.0593
ACGTACAT	0.135
CCGTGAAG	-0.0979
GTCATAGA	0.024

Later entries:

| Sequence | PBM E-score |
| --- | --- |
| AGAACTGC | -0.0232 |
| GACAGTTA | 0.00534 |
| AGATCACG | 0.0803 |
| AAATAAAG | -0.0232 |
| AGCACAGG | -0.0131 |
| CGACTAAA | -0.0897 |
| TCACTAAA | 0.138 |
| ATCACGAA | 0.064 |
| GAGAGTCC | -0.248 |
| CTTTATGA | -0.0403 |
| ACCTCGAT | -0.0127 |
| AAGACAGG | -0.0424 |
| AGTGTCCA | 0.0266 |
| CGACGCCA | -0.192 |
| AATTGTAG | 0.0815 |
| CCGCGAAG | 0.12 |
| AAAAGCGG | -0.0296 |
| CTCCAAAC | -0.0321 |
| CTAGTTCC | 0.138 |
| GGTGTGCA | -0.162 |
| TACTCCTA | -0.0421 |
| GTGAACCA | 0.188 |
| CACGTTTA | -0.0503 |
| CTCACCTA | 0.0145 |
| AGTAGGAA | -0.239 |

| Sequence | PBM E-score |
| --- | --- |
| CGGGGGAA | -0.236 |
| AGTAGGTC | -0.138 |
| AGGTCCCA | -0.17 |
| CCAGGTGC | -0.133 |
| AGCTTAGG | -0.0203 |
| CCGGTCCA | -0.0927 |
| ACCTAGAC | -0.0525 |
| CAGGTCCG | -0.0966 |
| AGGTGCAT | -0.0489 |
| CAGCTGTC | 0.253 |
| GCTACCAC | -0.0847 |
| AACACCGA | -0.167 |
| AAGGGGTA | -0.37 |
| TGCGTGAA | 0.0712 |
| CGAAACAG | 0.137 |
| AACTCTCC | -0.129 |
| AGACATGC | -0.26 |
| CGGCGCCG | 0.242 |
| TAAACTCA | 0.104 |
| CGAGTCAA | 0.0827 |
| CGCAGATC | 0.098 |
| CGACTACG | -0.208 |
| CTGATACA | -0.0475 |
| AGCCACAC | 0.231 |
| AAACTCAT | 0.253 |

Another view of some results above.
CGGGGGAA
  PBM E-score: -0.236
CCAGGTGC
  PBM E-score: -0.133
AGCTTAGG
  PBM E-score: -0.0203
CAGCTGTC
  PBM E-score: 0.253

(cont.)

| Sequence | PBM E-score |
| --- | --- |
| ATACCGTC | 0.168 |
| CATGAGCA | -0.0612 |
| AAGTCTCC | -0.0902 |
| CAATTGTG | 0.034 |
| CTAGACTC | -0.244 |
| ATGCATGA | 0.23 |
| AAGCCTAA | -0.0126 |
| ACGCGTCA | 0.198 |
| GTCTGACA | 0.186 |
| TAGGACGA | -0.0633 |
| CCGACCGC | -0.182 |
| TAACATCA | 0.172 |
| ACCCAGGG | -0.314 |
| GAATCCGC | 0.0707 |
| ACGTGAGC | -0.0803 |
| AGACCGTG | -0.034 |
| GCCTACAC | -0.0759 |
| CTGCGGGA | -0.166 |
| ATTCGTGG | 0.0778 |
| AGCTCGCC | -0.0374 |
| GTCTTGCA | 0.0216 |
| GCATCACA | 0.132 |
| GCATCGAA | -0.11 |
| AATCTACT | 0.156 |
| ACAGCTTA | 0.0779 |

| Sequence | PBM E-score |
| --- | --- |
| CTTGAAGA | 0.00752 |
| CGTAATGA | 0.0114 |
| ATAAGGAT | 0.0493 |
| CGAGGGTA | -0.17 |
| TAATATGA | 0.133 |
| ACTATACA | 0.0466 |
| TGATCCAA | -0.0232 |
| AAGTACTA | 0.0986 |
| AATGACGT | -0.0163 |
| CATCCGCG | 0.0393 |
| ATAGCTAT | -0.0499 |
| ATTGCGTA | 0.179 |
| AAGTGGCC | -0.155 |
| TATAAAAA | 0.192 |
| AGAGGTAG | -0.158 |
| AAGTCATT | -0.0862 |
| CAATGAGC | 0.059 |
| CGGCGTCC | 0.146 |
| CGAGCCCA | -0.146 |
| AGTCGCCC | -0.269 |
| ACCGCTAC | -0.221 |
| AGTCGGAT | -0.0138 |
| CGCTATGA | 0.119 |
| ATGCTAGG | -0.0466 |
| CTCGAGAA | 0.0677 |

| Sequence | PBM E-score |
| --- | --- |
| GTAAAACA | -0.0257 |
| AGTAGTTA | -0.0271 |
| GCTGGTAA | -0.0447 |
| CGGCATCA | 0.0303 |
| AACCAGCG | 0.0247 |
| AGGGATAC | -0.1 |
| GGTCAACA | 0.212 |
| CATTTTGC | 0.143 |
| CATCAACC | 0.0881 |
| ACAAACAC | 0.262 |
| GTTGCTGA | 0.111 |
| CCTTTTCC | -0.216 |
| TACGAGCA | -0.137 |
| GGAGATGA | 0.0691 |
| CGCTACCA | -0.193 |
| AAACGAAC | 0.0751 |
| CAACACCA | 0.0834 |
| GGTGATGA | 0.159 |
| ATGAAGCA | -0.00505 |
| ACTTTGAC | 0.108 |
| TAGTCCCA | -0.0583 |
| GATTCCTA | 0.0143 |
| ACTAGAAA | -0.0101 |
| AACCCAAC | -0.109 |
| AGCAGAAA | 0.164 |

| Sequence | PBM E-score |
| --- | --- |
| ATGCTCAG | 0.0145 |
| AGAGATGA | -0.0883 |
| AGCGCATG | 0.00571 |
| CATTAGCG | 0.02 |
| CTCAATAC | 0.117 |
| GTTCATGA | 0.262 |
| AATAAGGG | -0.0256 |
| CTATCCAA | -0.0799 |
| AACATCGG | -0.0901 |
| TCCCTTCA | -0.0837 |
| ACACCCAG | -0.194 |
| AGAGAATA | 0.0902 |
| AAACATTG | 0.111 |
| AGTAATTC | 0.23 |
| AGTCGAGC | -0.117 |
| CACATCGG | -0.0425 |
| GGCACCTA | -0.156 |
| AGCATCTA | 0.0079 |
| TGTATACA | 0.272 |
| GTGCATTA | 0.0248 |
| GCAGCCTA | -0.106 |
| ATTTAAGC | 0.161 |
| CGAATCCA | -0.0831 |
| CTTCATTA | 0.178 |
| CTACTTCC | 0.0698 |

| Sequence | PBM E-score |
| --- | --- |
| TAGTGATA | -0.0696 |
| CGAGGTAC | 0.00379 |
| AAATGGGC | -0.226 |
| ATATTCTA | 0.231 |
| AGCTGACG | 0.158 |
| GGACCAAC | -0.0534 |
| CGACATGA | -0.0493 |
| TAGCTTCA | 0.00355 |
| CATATGTA | 0.111 |
| ATAGAGCA | -0.0263 |
| GTCAGGTA | -0.0251 |
| GTATGTGA | -0.0425 |
| CGTAAACA | 0.256 |
| GACGTAGC | -0.084 |
| ACGCTACG | -0.106 |
| CTGTCCTC | -0.205 |
| CTTCGGCA | -0.198 |
| AGGTTCTC | -0.134 |
| ACCAAATC | -0.126 |
